Measurements as given in patent US5215979A, “16,17-acetalsubstituted pregnane 21-oic acid derivatives” (priority 1985, dated 1993).

Experiment: Selectivity of left lung lobe instillation verified with Evans Blue
Format: in vivo, Sprague-Dawley rats
Conditions: instillation into left lung lobe

Structure (SMILES): Cc1cc(-c2ccc(/N=N/c3ccc4c(S(=O)(=O)O)cc(S(=O)(=O)O)c(N)c4c3O)c(C)c2)ccc1/N=N/c1ccc2c(S(=O)(=O)O)cc(S(=O)(=O)O)c(N)c2c1O [Evans Blue]
- Applied substance found in the left lung half: > 95%
- Applied substance found in the right lung half: < 5%
